Source: the supplement of paper PMC10849652
The list shows a part of the results.

The chains behind the UniProt entries cited, without tags or fusion partners. Where a name states a change or a piece, a line headed by the entry shows the natural chain unless it says otherwise.
UniProt Q8IYN2: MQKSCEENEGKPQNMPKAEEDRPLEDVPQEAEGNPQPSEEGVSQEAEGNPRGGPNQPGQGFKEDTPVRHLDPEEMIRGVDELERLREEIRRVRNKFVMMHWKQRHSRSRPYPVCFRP
UniProt Q8IWB9: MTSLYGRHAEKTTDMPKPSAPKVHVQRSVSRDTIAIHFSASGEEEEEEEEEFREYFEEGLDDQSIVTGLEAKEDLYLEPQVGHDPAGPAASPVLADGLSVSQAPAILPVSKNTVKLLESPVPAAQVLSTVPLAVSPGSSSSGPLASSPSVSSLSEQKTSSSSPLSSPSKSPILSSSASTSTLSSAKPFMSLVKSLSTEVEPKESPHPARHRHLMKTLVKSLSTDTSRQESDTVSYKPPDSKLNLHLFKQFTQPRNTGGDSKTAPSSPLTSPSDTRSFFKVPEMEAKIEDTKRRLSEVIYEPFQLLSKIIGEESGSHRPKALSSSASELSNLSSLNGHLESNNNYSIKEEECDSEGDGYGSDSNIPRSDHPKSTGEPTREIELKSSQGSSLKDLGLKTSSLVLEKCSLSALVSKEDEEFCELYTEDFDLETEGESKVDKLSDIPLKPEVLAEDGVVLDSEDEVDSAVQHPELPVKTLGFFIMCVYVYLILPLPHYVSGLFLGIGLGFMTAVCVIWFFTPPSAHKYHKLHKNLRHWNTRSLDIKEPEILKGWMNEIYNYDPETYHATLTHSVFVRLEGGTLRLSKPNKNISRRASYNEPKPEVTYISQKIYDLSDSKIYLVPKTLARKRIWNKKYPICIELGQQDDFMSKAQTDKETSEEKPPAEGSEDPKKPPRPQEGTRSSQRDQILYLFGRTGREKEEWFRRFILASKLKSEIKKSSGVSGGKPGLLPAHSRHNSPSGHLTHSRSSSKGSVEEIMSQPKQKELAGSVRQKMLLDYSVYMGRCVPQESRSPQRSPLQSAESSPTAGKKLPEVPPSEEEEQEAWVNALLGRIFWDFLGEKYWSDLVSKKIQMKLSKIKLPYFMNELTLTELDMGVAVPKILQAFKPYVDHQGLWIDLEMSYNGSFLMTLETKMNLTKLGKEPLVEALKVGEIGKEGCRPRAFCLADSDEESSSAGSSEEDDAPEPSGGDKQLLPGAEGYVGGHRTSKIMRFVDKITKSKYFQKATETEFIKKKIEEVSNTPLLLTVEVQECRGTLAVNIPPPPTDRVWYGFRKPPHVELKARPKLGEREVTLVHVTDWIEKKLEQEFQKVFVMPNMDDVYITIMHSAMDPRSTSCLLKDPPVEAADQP
UniProt Q9P2M4: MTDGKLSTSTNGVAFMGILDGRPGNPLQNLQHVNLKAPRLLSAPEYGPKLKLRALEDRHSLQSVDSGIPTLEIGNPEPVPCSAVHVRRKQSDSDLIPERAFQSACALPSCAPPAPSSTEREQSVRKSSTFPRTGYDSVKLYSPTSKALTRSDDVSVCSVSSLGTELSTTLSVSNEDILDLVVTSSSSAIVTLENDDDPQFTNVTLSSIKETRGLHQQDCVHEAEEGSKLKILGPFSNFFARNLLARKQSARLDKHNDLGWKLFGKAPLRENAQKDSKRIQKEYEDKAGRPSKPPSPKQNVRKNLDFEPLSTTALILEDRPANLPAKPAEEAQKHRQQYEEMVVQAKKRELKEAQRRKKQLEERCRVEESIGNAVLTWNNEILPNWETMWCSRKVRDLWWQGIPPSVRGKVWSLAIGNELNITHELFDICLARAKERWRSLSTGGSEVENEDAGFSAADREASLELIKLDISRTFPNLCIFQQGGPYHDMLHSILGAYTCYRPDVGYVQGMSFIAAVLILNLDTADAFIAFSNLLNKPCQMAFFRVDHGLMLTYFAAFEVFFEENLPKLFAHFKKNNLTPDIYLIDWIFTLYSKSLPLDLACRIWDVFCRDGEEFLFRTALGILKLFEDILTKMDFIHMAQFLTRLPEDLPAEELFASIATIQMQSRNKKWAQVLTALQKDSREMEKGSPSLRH
UniProt O43422: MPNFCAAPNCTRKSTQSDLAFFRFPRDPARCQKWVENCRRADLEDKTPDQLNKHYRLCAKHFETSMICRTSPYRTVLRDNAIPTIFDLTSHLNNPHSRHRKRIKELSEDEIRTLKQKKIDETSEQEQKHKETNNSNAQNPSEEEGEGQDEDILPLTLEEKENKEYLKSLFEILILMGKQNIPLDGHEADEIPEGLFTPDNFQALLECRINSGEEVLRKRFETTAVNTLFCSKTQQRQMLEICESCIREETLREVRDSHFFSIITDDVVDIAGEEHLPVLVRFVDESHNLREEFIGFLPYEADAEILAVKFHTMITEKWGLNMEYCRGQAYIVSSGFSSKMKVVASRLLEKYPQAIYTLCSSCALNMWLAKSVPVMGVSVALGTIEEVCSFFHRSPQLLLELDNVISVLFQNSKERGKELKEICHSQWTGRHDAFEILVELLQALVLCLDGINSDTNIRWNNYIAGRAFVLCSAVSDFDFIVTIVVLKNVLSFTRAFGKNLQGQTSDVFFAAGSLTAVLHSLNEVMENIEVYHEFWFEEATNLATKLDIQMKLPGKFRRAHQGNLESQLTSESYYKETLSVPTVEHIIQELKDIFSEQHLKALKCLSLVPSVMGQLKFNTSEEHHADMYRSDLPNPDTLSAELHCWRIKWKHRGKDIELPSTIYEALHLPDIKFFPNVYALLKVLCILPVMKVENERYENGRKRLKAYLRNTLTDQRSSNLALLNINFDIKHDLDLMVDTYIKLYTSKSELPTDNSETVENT
UniProt Q9NQ88: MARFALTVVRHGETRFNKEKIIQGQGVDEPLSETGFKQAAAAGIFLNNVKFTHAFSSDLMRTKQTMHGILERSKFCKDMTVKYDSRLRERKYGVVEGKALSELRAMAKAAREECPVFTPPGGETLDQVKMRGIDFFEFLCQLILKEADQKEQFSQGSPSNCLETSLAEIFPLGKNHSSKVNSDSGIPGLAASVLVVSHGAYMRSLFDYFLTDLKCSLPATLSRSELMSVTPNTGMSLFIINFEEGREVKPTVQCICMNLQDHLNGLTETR
UniProt B5MCY1: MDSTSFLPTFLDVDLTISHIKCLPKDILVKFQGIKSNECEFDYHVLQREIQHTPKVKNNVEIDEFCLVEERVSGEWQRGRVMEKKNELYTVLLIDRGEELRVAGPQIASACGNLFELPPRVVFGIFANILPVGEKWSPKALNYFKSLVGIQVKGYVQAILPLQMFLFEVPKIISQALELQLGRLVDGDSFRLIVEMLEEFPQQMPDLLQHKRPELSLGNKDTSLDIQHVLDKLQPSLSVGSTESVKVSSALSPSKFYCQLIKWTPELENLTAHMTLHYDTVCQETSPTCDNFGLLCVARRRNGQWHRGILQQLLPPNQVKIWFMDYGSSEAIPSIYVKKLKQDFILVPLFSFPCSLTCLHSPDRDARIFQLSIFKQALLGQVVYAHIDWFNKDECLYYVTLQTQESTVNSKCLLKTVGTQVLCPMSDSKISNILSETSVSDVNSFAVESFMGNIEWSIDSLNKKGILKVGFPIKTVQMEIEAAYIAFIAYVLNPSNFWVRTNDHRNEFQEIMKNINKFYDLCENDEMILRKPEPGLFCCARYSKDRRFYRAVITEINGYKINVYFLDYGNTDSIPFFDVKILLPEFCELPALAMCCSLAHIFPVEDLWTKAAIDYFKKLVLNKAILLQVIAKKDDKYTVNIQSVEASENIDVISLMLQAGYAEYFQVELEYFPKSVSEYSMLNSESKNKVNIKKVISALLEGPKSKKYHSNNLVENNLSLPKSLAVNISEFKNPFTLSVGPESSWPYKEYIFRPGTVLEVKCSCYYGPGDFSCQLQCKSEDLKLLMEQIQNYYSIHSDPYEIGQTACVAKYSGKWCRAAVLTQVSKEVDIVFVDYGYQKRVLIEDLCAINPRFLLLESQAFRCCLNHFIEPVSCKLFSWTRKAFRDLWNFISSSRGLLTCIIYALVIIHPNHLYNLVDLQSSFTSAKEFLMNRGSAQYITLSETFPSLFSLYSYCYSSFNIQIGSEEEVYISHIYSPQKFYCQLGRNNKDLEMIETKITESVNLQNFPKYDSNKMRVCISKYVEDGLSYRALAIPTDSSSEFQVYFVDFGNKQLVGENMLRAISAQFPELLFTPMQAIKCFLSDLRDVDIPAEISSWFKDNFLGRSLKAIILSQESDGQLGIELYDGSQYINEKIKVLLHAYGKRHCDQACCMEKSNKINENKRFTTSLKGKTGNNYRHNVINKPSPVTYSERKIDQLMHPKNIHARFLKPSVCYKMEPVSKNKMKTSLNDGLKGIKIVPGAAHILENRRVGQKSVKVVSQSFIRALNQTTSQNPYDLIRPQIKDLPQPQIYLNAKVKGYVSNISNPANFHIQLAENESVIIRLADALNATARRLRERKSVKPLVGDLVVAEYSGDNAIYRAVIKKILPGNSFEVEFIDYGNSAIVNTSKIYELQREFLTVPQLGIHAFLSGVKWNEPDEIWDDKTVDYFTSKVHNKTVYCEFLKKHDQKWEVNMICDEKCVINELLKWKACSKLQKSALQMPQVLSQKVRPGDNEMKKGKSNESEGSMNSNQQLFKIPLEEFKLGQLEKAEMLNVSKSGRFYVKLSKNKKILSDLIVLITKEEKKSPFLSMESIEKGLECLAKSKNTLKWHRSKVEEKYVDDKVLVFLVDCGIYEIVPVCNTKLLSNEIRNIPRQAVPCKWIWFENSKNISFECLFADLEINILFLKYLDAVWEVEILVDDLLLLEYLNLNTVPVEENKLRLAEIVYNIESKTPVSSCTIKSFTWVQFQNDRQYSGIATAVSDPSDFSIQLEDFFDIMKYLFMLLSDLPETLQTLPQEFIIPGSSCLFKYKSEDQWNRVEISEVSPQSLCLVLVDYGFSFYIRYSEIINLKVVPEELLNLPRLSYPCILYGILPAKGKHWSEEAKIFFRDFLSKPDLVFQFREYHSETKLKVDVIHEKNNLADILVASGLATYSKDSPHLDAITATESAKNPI
UniProt P10646, whole entry, looked up: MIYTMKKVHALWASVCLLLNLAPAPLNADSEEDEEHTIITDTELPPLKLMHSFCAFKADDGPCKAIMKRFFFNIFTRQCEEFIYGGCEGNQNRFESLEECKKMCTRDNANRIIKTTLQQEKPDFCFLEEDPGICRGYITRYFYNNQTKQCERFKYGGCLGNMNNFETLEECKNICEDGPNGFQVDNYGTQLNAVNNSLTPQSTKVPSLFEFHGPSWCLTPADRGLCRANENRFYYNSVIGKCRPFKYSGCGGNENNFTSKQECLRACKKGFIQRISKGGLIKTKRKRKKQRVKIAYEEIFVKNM
UniProt P15884: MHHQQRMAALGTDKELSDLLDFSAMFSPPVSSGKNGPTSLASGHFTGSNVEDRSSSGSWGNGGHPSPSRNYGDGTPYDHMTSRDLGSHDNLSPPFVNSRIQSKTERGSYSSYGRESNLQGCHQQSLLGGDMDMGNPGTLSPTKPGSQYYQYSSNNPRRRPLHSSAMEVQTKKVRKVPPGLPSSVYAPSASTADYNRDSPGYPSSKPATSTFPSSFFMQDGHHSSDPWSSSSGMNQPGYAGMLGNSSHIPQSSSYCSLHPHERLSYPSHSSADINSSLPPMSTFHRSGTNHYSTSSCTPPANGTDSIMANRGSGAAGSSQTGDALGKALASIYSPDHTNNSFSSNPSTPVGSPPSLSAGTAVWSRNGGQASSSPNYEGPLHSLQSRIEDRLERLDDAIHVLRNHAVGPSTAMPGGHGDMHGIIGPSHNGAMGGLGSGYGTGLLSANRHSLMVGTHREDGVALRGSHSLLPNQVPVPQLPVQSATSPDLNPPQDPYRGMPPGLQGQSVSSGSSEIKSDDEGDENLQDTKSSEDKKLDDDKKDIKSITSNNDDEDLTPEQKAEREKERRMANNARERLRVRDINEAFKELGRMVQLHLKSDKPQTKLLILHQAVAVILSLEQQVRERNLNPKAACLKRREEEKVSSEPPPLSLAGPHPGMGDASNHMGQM
UniProt Q9BQ70: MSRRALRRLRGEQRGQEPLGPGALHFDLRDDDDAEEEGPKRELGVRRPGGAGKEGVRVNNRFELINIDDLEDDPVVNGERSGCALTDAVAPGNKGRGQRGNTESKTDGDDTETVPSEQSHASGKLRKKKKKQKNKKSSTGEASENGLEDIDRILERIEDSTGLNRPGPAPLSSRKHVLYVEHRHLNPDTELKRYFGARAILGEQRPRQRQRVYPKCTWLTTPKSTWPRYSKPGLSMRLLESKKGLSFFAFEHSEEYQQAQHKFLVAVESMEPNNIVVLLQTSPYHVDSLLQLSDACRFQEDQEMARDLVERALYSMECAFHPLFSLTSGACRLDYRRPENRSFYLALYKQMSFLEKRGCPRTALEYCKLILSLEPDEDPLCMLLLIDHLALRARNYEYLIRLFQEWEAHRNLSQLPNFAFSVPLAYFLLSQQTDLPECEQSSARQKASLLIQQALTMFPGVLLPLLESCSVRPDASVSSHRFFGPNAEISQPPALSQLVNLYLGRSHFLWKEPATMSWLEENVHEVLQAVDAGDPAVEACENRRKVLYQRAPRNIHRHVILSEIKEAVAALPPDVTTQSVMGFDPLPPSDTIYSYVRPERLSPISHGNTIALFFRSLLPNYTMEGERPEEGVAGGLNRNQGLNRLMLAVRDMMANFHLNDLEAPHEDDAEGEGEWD

Compound: CN1CCC(CNc2ccc3ncc(-c4cccc(OC(F)(F)F)c4)n3n2)CC1
Assay: log2 fold change, soluble protein after heating vs DMSO (PISA); higher = thermal stabilisation; K562 cells, 10 uM, 30 min; active = over 0.2 and 3.5 SD of the protein, either way, in both replicates (recomputed)
Outline: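 Soluble protein was defined as the supernatant after 21,000xg for 90 min. It came from K562 cells at 2×10^6 cells/mL given 10 μM compound for 30 min, heated in aliquots for 3 min across 48°C-58°C, pooled, and extracted in PBS with 0.5% NP-40 at 4°C, and was quantified by TMTpro 16plex LC-MS/MS with equalised channel sums. Thermal stability against control samples, from duplicates, is reported as log2 fold change.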

Row | Target | log2 fold change
1 | TCEAL8 (UniProt Q8IYN2) | inactive: 0.012
2 | TK1 (UniProt K7ERV3) | inactive: 0.005
3 | TBC1D2 (UniProt Q9BYX2) | inactive: -0.019
4 | TEX10 (UniProt Q9NXF1) | inactive: 0.033
5 | TEX2 isoform 2 (UniProt Q8IWB9) | inactive: 0.038
6 | TBC1D14 (UniProt Q9P2M4) | inactive: -0.201
7 | TENM4 (UniProt Q6N022) | inactive: -0.005
8 | THAP12 (UniProt O43422) | inactive: 0.266
9 | TDRD7 (UniProt Q8NHU6) | inactive: -0.013
10 | TIGAR (UniProt Q9NQ88) | inactive: -0.05
11 | TCEAL1 isoform 2 (UniProt Q15170) | inactive: -0.194
12 | TEX30 (UniProt Q5JUR7) | active: -0.601
13 | TGDS (UniProt O95455) | inactive: -0.224
14 | TCF20 (UniProt Q9UGU0) | inactive: -0.158
15 | TDRD15 (UniProt B5MCY1) | inactive: -0.288
16 | TIFA (UniProt Q96CG3) | inactive: -0.114
17 | TFPI (UniProt P10646) | inactive: 0.379
18 | TCF3 isoform 2 (UniProt P15923) | inactive: -0.114
19 | TBCK (UniProt Q8TEA7) | inactive: -0.118
20 | TCF4 isoform 3 (UniProt P15884) | inactive: -0.043
21 | TCF25 (UniProt Q9BQ70) | inactive: -0.155
22 | THEMIS2 (UniProt Q5TEJ8) | inactive: -0.139
23 | TCOF1 isoform 3 (UniProt Q13428) | inactive: -0.436

Shown tab-delimited: part of the list above.
Row	Target	log2 fold change
3	TBC1D2 (UniProt Q9BYX2)	inactive: -0.019
4	TEX10 (UniProt Q9NXF1)	inactive: 0.033
